{"sequences": {"note": "By UniProt entry, the sequences of proteins in these tests, tags left out. Residues count along the entry.", "UniProt P23795, 31-614 isoform 2 limits assumed": "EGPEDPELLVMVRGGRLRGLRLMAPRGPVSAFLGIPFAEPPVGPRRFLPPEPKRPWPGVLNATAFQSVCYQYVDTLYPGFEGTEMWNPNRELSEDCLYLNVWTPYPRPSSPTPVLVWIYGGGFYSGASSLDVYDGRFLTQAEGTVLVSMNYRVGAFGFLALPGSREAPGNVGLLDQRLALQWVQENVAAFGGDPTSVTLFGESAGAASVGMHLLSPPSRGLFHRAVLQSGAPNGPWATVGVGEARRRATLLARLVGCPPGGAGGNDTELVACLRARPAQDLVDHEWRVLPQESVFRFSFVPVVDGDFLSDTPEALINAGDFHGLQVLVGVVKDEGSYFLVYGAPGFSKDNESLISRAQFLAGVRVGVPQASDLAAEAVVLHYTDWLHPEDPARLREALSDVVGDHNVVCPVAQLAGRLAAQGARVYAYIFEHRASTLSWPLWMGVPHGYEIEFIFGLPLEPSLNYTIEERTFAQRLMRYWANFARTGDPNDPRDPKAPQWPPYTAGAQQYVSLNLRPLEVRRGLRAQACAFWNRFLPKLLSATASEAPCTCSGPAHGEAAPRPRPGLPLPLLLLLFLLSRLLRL", "UniProt P06276, 29-602 limits assumed": "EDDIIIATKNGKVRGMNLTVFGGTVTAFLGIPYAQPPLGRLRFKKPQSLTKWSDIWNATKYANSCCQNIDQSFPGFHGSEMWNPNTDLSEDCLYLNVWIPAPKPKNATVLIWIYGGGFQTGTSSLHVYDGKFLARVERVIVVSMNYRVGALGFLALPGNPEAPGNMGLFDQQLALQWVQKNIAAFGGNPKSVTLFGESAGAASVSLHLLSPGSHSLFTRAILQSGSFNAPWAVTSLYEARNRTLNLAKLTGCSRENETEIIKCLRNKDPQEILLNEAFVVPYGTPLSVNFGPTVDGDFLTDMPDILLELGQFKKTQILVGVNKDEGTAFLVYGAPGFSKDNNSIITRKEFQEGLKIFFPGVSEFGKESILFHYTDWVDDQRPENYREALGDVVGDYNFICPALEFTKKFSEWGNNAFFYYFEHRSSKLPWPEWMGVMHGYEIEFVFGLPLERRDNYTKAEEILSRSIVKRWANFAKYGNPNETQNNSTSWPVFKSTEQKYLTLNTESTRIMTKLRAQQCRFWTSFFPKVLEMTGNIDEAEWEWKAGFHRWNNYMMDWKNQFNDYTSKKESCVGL", "UniProt P22303, 32-614 limits assumed": "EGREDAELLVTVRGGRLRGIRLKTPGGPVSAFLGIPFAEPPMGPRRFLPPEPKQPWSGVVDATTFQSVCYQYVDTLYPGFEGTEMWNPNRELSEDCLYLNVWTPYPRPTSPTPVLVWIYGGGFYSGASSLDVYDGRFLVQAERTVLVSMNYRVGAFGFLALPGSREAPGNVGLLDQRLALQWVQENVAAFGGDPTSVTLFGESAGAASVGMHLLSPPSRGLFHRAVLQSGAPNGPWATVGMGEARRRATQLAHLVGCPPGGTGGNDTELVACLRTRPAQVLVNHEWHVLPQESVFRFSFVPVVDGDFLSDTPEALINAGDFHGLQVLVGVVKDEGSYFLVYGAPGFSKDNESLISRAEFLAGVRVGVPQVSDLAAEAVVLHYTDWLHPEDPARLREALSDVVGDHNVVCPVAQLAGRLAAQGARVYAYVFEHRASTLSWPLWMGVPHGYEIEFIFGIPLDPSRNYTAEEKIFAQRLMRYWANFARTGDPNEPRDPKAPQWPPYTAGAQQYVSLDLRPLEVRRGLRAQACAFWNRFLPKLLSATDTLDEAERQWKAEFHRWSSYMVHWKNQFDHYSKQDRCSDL"}, "source": "patent US20060142323A1", "about": "“Dual binding site acetylcholinesterase inhibitors for the treatment of alzheimer's disease” (priority 2002, published 2006)", "key": {"[1]": {"target": "AChE from bovine erythrocytes (Bos taurus, UniProt P23795)", "assay": "Acetylcholinesterase (AChE) inhibition (from bovine erythrocytes), Ellman method at 30° C., Digiscan 340T", "format": "biochemical", "settings": "read-out: IC50 AchE, 5 min preincubation"}, "BuChE from human serum": {"target": "BuChE from human serum (Homo sapiens, UniProt P06276)", "assay": "Butyrylcholinesterase (BuChE) inhibition (from human serum)", "format": "biochemical", "settings": "read-out: IC50 BuChE, 30° C., 10 min preincubation"}, "[2]": {"test_system": "human neuroblastoma cell line SH—SY5Y", "assay": "Toxicity measurement (LDH) in SH-SY5Y cells", "format": "cell-based", "settings": "24 hours exposure", "protocol": "The cytotoxicity effect of the molecules was tested in the human neuroblastoma cell line SH—SY5Y. These cells were cultured in 96-well plates in minimum essential medium, Han's F12 medium, supplemented with 10% fetal bovine serum, 1% glutamine and 1% penicillin/streptomycin, and grown in. a 5% CO2 humidified incubator at 37° C.\nThe cells were plated at 10^4 cells for each well, at least, 48 hours before the toxicity measure. Cells were exposed for 24 hours to the compounds at different concentrations (from 10^−5 to 10^−9), quantitative assessment of cell death was made by measurement of the intracellular enzyme lactate dehydrogenase (LDH) (citotoxicity detection kit, Roche). The cuantity of LDH was evaluated in a microplate reader Anthos 2010, at 492 and 620 nm. Controls were taken as 100% viability."}, "AChE peripheral site": {"target": "AChE peripheral site (Homo sapiens, UniProt P22303)", "assay": "Propidium competition (fluorescence)", "format": "binding", "settings": "20 μM propidium iodide, AChE incubated at least 6 hours with compound"}}, "note": "The match of structure and compound is tentative."}
{"smiles": "O=C1c2ccccc2C(=O)C1NCCCCCCNc1c2c(nc3ccccc13)CCCC2", "values": [{"measurement": "IC50", "setting": "[1]", "result": 500, "unit": "nM"}, {"measurement": "IC50", "setting": "BuChE from human serum", "result": 100, "unit": "nM"}, {"measurement": "Toxicity", "setting": "[2]", "result": 10, "unit": "µM"}, {"measurement": "Propidium competition", "setting": "AChE peripheral site", "result": ">100", "unit": "µM"}]}
